The values below come from PubChem BioAssay AID651647 (Sanford-Burnham Center for Chemical Genomics, 2012).

Some of the results follow.

This assay is described as follows: MT1-MMP activation inhibitors, cellular reporter – HT1080 RFP-PRO-GFP cells, GFP/RFP fluorescence, primary screen (AID 651647). Particulars: GFP/RFP ratio fluorescence, overnight, RFP expression control read, at 20 µM. In short, it runs like this: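 Test system: HT1080 cells expressing an RFP-PRO-GFP fluorescent reporter construct / Compound dosing: single-point 20 µM compound, 1% DMSO / Schedule: cells overnight before dosing, compound overnight, 37 °C, 5% CO2 / Evaluation: GFP/RFP fluorescence ratio / Control set: DMSO and RFP-L50D-GFP cell wells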
Consider `O=C(O)c1cccc(Nc2c([N+](=O)[O-])cc([N+](=O)[O-])cc2[N+](=O)[O-])c1`, for which the RFP signal change was -3.1%.
`O=P(Nc1nccs1)(c1ccccc1)c1nc2ccccc2s1` (centres undefined): the RFP signal change is 2.82%.
In the case of `O=P(Nc1nccs1)(Oc1ccccc1)Oc1ccccc1` it was -1.65%; in that of `CS(=O)(=O)c1cc([N+](=O)[O-])c2no[n+]([O-])c2c1`, 4.55%.
In the case of `Nc1cccc([As](=O)(O)c2ccccc2)c1` it was 3.74%; in that of `CP(=O)(Nc1ccc(SC(F)(F)F)cc1)Oc1ccccc1` (centres undefined), -0.751%.
With `CCCOc1ccc(NP(C)(=O)Oc2ccc(Cl)cc2)cc1` (centres undefined) the figure was 1.38%.
Take `O=P1(Nc2ccc(Br)cn2)COc2ccccc2OC1`: the RFP signal change was -1.01%.
In the case of `NS(=O)(=O)c1cccc(NC(=O)COC(=O)C(O)(c2ccccc2)c2ccccc2)c1` it was -0.782%; in that of `Cc1ccc(OCC(=O)OC2CN3CCC2CC3)cc1` (centres undefined), 5.43%.
With `O=[As](O)(c1cccs1)c1cccs1` the figure was 2.23%.
`COc1ccc(-c2ccccn2)cc1.O=[N+]([O-])c1cc([N+](=O)[O-])c(O)c([N+](=O)[O-])c1`: the RFP signal change worked out at 6.75%.
With `O=P1(Nc2ncccn2)COc2ccccc2OC1`, the RFP signal change came to 6.37%.
In the case of `COc1ccccc1OP(C)(=O)Nc1c(C)cccc1C` (centres undefined) it was -1.15%; in that of `CN1CCCCC1COC(=O)C1(O)c2ccccc2CCc2ccccc21` (centres undefined), -8.49%; in that of `O=[N+]([O-])c1cc([N+](=O)[O-])c(Nc2nnnn2CCO)c([N+](=O)[O-])c1`, 0.64%.
In the case of `CN(C)C1(CNC(=O)c2ccc(S(C)(=O)=O)cc2)CCCCC1` it was 5.98%; in that of `CC1=C2N=C(C=C3N=C(C(C)=C4[N-][C@@](C)([C@@H]5N=C1[C@](C)(CCC(=O)NC[C@@H](C)OP(=O)([O-])O[C@H]1[C@@H](O)[C@@H](n6cnc7cc(C)c(C)cc76)O[C@@H]1CO)[C@H]5CC(N)=O)[C@@](C)(CC(N)=O)[C@@H]4CCC(N)=O)[C@@](C)(CC(N)=O)[C@@H]3CCC(N)=O)C(C)(C)[C@@H]2CCC(N)=O.[C-]#N.[Co+3]`, 4.89%.
For `CCOC(=O)C(CC)C1=NC(C)(C)Cc2ccccc21.O=[N+]([O-])c1cc([N+](=O)[O-])c(O)c([N+](=O)[O-])c1` (centres undefined), the RFP signal change amounted to 1.75%.
Turning to `O=C(/C=C/c1ccccc1)OC1CN2CCC1CC2` (centres undefined), the RFP signal change was -1.54%.
For `CCCC1OP(=O)(Nc2ccccc2)OCC1CC` (centres undefined), the RFP signal change was 3.52%.
Regarding `Cc1nn(-c2ccccc2)c2c1P(=O)(N1CCOCC1)N(C)C(c1ccccc1)=N2` (centres undefined), the RFP signal change is 2.29%.
In the case of `CC1CCC(C(C)C)C(OP(=O)(Nc2ccccn2)c2ccccc2)C1` (centres undefined) it was -11.2%; in that of `Cc1ccc(C(=O)OC2CN3CCC2CC3)cc1` (centres undefined), 2.79%.
On to `COc1cc(C2NCCC3(OCCO3)C2(C)C)cc(OC)c1OC.O=[N+]([O-])c1cc([N+](=O)[O-])c(O)c([N+](=O)[O-])c1` (centres undefined), for which the RFP signal change is 1.43%.
For the compound `CC(C)/C=N\N=C(\N)N[N+](=O)[O-]`, the RFP signal change was -0.153%.
With `CN(C(=O)Cc1ccc(Cl)c(Cl)c1)[C@@H]1CCCC[C@H]1N1CCCC1` the figure was 3.11%; with `Cc1ccc(S(=O)(=O)N(CCCN)CCCc2c(C)nc(N)[nH]c2=O)cc1.O=[N+]([O-])c1cc([N+](=O)[O-])c(O)c([N+](=O)[O-])c1`, 4.23%; with `CC1(CBr)Cn2c(nc3ccccc3c2=O)S1` (centres undefined), 3.47%.
With `Cc1nc2ccc3ccccc3c2s1.O=[N+]([O-])c1cc([N+](=O)[O-])c(O)c([N+](=O)[O-])c1` the figure was 6.74%.
With `O=[N+]([O-])c1cc([N+](=O)[O-])c(-c2cnn(-c3ccccc3)c2)c([N+](=O)[O-])c1` the figure was -12.8%; with `COc1ccccc1CNC(=O)COC(=O)C(O)(c1ccccc1)c1ccccc1`, -1.35%; with `CN(Cc1cccnc1)C(=O)COc1ccc(Cl)c(Cl)c1.O=[N+]([O-])c1cc([N+](=O)[O-])c(O)c([N+](=O)[O-])c1`, 5.74%.
Turning to `O=P1(N(CCCl)CCCl)NCCC(C(F)(F)F)O1` (centres undefined), the RFP signal change worked out at 4.42%.
With `Clc1n[nH]nc1-c1nn[nH][15n]1` the figure was 2.68%; with `CC(C)(C)C(=O)NC(Sc1ncccn1)C(Cl)(Cl)Cl` (centres undefined), 4.06%; with `O=C(O)C(O)c1ccc(N(CCCl)CCCl)cc1.c1ccncc1` (centres undefined), 4.98%.
In the case of `O=P1(Nc2ccccn2)COc2ccccc2OC1` it was -0.902%; in that of `CCC1=CC2Cc3nc4ccc(Cl)cc4c(N)c3C(C1)C2` (centres undefined), -9.68%.
With `CCOP(=O)(NC(=NC(C)c1ccccc1)NC(C)c1ccccc1)OCC` (centres undefined) the figure was 2.18%; with `Nc1ccc(CCCCOc2ccccc2)cc1.O=[N+]([O-])c1cc([N+](=O)[O-])c(O)c([N+](=O)[O-])c1`, -10.1%; with `O=[N+]([O-])c1cc([N+](=O)[O-])c(-n2nnc3ccccc32)c([N+](=O)[O-])c1`, 7.96%.
`CN(CCCl)Cc1cc(Cl)c(NC2=NCCN2)c(Cl)c1`: the RFP signal change amounted to 4.96%.
In the case of `CCOP(=O)(Nc1ccc(C)cn1)OCC` it was -0.475%.
